PubChem BioAssay AID2685 (National Center for Advancing Translational Sciences (NCATS), 2010)
Some of the results follow. These are further read-outs of the screen, such as a control signal, another cell line or another target. No call is given for them. Compounds called inactive in the main read-out are mostly missing here. Potencies come from curve fits of mixed quality, noted in brackets.

Experiment: qHTS Assay for Lipid Storage Modulators in Drosophila S3 Cells;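 as to cell number change: cells counted by Cell Tracker Red CMTPX staining in the red channel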
Details: BODIPY lipid droplet fluorescence, 18-24 h; for cell number change: measured here: cell count max response, cells fed with added oleic acid
Method in brief: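 Laser-scanning cytometry quantifies lipid droplet accumulation (500–530 nm total intensity; droplet/cell object ratio) in oleic acid-fed (400 uM added) Drosophila S3 cells treated with a concentration series. 20 uM Triacsin C defined 100% inhibition.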

[1] = measured here: lipid fluorescence (Fed channel) AC50, cells fed with added oleic acid
[2] = measured here: cell number channel AC50, cells fed with added oleic acid

SMILES	cell number change	AC50 [1]	AC50 [2]
O=C(/C=C/c1ccc2c(c1)OCO2)N1CCCCC1	6.67%	4.61 µM [rising, full curve]	
Cn1c(-c2ccc3c(c2)OCO3)cnc1NCc1cccc(O)c1	0.602%	0.092 µM [falling, full curve, poor fit]	
COc1ccc(CNC(=O)CN(Cc2ccc(Cl)cc2)C(=O)c2csnn2)cc1	6.84%	3.26 µM [rising, single point]	
c1cncc(-c2nc(-c3ccc4c(c3)OCO4)cs2)c1		29.1 µM [rising, partial curve]	0.0146 µM [rising, full curve, poor fit]
O=C(CN1C(=O)c2ccccc2S1(=O)=O)NCc1cccnc1	-26.9%	2.06 µM [falling, full curve]	0.184 µM [falling, full curve, poor fit]
Cc1ccc(-n2nnnc2CS(=O)(=O)c2ccccc2)c(C)c1	16.8%	2.59 µM [rising, single point]	
CC(=O)N(C(C)=O)N1C(=O)c2cccc3c(N4CCOCC4)ccc(c23)C1=O	-26.3%	29.1 µM [falling, partial curve, poor fit]	
Cc1c(O)ccc(NC(=O)/C=C/c2ccccc2)c1C	9.81%	2.24 µM [falling, single point]	
Cc1nn(-c2ccc(F)cc2)c(Cl)c1/C=N/NC(=O)c1cccs1	-45.1%	13 µM [falling, partial curve]	14.6 µM [falling, partial curve]
Cn1c(SCc2cccc(Br)c2)nnc1-c1ccccn1	23.4%	3.66 µM [rising, single point]	6.51 µM [rising, single point]
COc1ccc(-c2cc(C)no2)cc1S(=O)(=O)N1CCOc2ccc(C)cc21	61.1%	3.26 µM [falling, single point]	20.6 µM [rising, single point]
COc1ccc(OCc2cccc(C(=O)Nc3cc(C)on3)c2)cc1	5.87%	0.00517 µM [rising, full curve, poor fit]	
CCc1cccc(NC(=O)CSCc2nc3sc(C)c(C)c3c(=O)[nH]2)c1	2.51%	16.4 µM [rising, single point]	
COc1cc(CC(=O)Nc2sc3c(c2C(N)=O)CCCC3)cc(OC)c1OC	14.1%	16.4 µM [rising, partial curve]	
COc1ccc(NC(=O)CN(C)C(=O)CCCc2c[nH]c3ccccc23)cc1	-3.98%	18.4 µM [falling, single point]	
CCCC(=O)n1nc(-c2cccnc2)nc1N	-19.4%	4.61 µM [falling, full curve, poor fit]	
COc1cccc(-n2c(C)nnc2SCC(=O)Nc2ccccc2N2CCOCC2)c1	21.3%	0.0651 µM [rising, single point]	0.731 µM [rising, full curve, poor fit]
O=C(O)CCn1cc(-c2ccc(Cl)cc2)nc1-c1ccncc1	28.3%	0.731 µM [falling, single point]	
CCn1c(O)c(N=NC(=O)CNc2ccc(C)cc2)c2ccccc21	14.9%	4.61 µM [rising, partial curve]	1.64 µM [rising, partial curve, poor fit]
CCOC(=O)Cc1csc(NC(=O)c2ccc(C)c(S(=O)(=O)N3CCOCC3)c2)n1	39.7%	8.2 µM [rising, partial curve]	32.6 µM [rising, single point]

SMILES	cell number change	AC50 [1]	AC50 [2]
S=c1nc(-c2ccccc2)[nH]c2ccccc12		3.66 µM [falling, single point]	
COc1ccc(OC)c(-c2csc(N(Cc3ccco3)C(=O)c3cccs3)n2)c1	-20.4%	6.51 µM [falling, partial curve, poor fit]	
Cc1cc(Cl)c2oc(C(=O)N3CCCCC3CCN3CCCC3=O)c(C)c2c1 (configuration not stated)	3.24%	29.1 µM [rising, single point]	
O=C(c1ccc(CS(=O)(=O)Cc2ccc(Cl)cc2)o1)N1CCCC1	18.6%	13 µM [rising, single point]	
COc1cc2oc3ccccc3c2cc1N(CC(=O)N(C)C)S(=O)(=O)c1ccccc1	-13.3%	0.82 µM [rising, full curve]	
Cc1cc(NC(=O)c2cccs2)ccc1NC(=O)Cc1ccccc1	31.4%	1.3 µM [rising, full curve, poor fit]	1.16 µM [rising, full curve, poor fit]
CCc1ccc(OCc2ccc(C(=O)O)o2)cc1	42.3%	0.13 µM [rising, full curve, poor fit]	0.092 µM [rising, full curve, poor fit]
CCC(=O)Nc1ccc(C(=O)CSc2nnc(-c3ccc(NS(=O)(=O)CC)cc3)o2)cc1OC	-23.6%	1.84 µM [falling, full curve, poor fit]	
Cc1ccnc(SCC(=O)NC2CCCCCC2)n1	0.276%	0.58 µM [falling, single point]	
O=C(NCCc1ccc(OC(F)F)cc1)C1CC(=O)N(c2ccc3c(c2)OCCO3)C1 (configuration not stated)	-7.06%		
CCOCCC(=O)Nc1cc(Cl)ccc1OC	74.9%		14.6 µM [rising, partial curve]
O=C1NC(c2ccncc2)Nc2ccccc21 (configuration not stated)	3.26%		
COc1ccc(C2(C)NC(=O)N(CC(=O)Nc3ccc(Br)cc3F)C2=O)cc1OC (configuration not stated)	10.4%	0.58 µM [rising, single point]	
Cc1cccc(NS(=O)(=O)c2ccc(C(C)(C)C)cc2)n1	10.6%	0.164 µM [falling, single point]	
Cc1ccc(NC(=O)COC(=O)Cc2c[nH]c3ccccc23)cc1F	-64%		29.1 µM [falling, single point]
COc1ccc(C2=NO[C@@H]3[C@@H]4C[C@@H]([C@H]5C(=O)N(C)C(=O)[C@@H]45)[C@H]23)cc1			2.91 µM [rising, single point]
COc1ccc(-c2noc(N3CCC(C(=O)Nc4cc(OC)ccc4OC)CC3)n2)cc1	9.8%	4.11 µM [rising, single point]	
O=S(=O)(Nc1ccccc1)c1ccc(NS(=O)(=O)c2c(F)cccc2F)cc1	-9.52%	2.59 µM [falling, partial curve, poor fit]	
O=C(Cn1cc(S(=O)(=O)Cc2ccccc2)c2ccccc21)Nc1ccccc1	16.9%		
O=C(NCc1ccccc1)c1ccc(NC(=O)c2ccco2)cc1	3.78%		

Another view of some results above:
Cc1ccnc(SCC(=O)NC2CCCCCC2)n1
  cell number change: 0.276%; AC50 [1]: 0.58 µM [falling, single point]
O=C(NCCc1ccc(OC(F)F)cc1)C1CC(=O)N(c2ccc3c(c2)OCCO3)C1 (configuration not stated)
  cell number change: -7.06%

Among those listed so far, these contain bromine.
SMILES	cell number change	AC50 [1]	AC50 [2]
Cn1c(SCc2cccc(Br)c2)nnc1-c1ccccn1	23.4%	3.66 µM [rising, single point]	6.51 µM [rising, single point]
COc1ccc(C2(C)NC(=O)N(CC(=O)Nc3ccc(Br)cc3F)C2=O)cc1OC (configuration not stated)	10.4%	0.58 µM [rising, single point]	

(list continues)

SMILES	cell number change	AC50 [1]	AC50 [2]
COCCNc1nnc(SCC(=O)Nc2cc(-c3ccccc3)nn2-c2ccccc2)s1	-28%	20.6 µM [falling, partial curve]	
CC(=O)OCC(=O)[C@@]1(O)CCC2C3CCC4=CC(=O)CCC4(C)C3C(=O)CC21C (some centres not stated)	-25%	11.6 µM [rising, single point]	
Cc1cc(Nc2ccc3c(c2)OCCO3)c2cc(Cl)ccc2n1	-8.91%	0.0651 µM [falling, full curve, poor fit]	
CN(Cc1c(F)cccc1Cl)C(=O)CCc1c[nH]c2ccccc12	-14.5%	0.1 µM [falling, full curve, poor fit]	
S=c1[nH]nc(C2CCCCC2)n1/N=C/c1cccc(Cl)c1Cl	-53.2%		20.6 µM [falling, partial curve]
COCCn1c(SCC(=O)c2ccc3c(c2)OCCO3)nnc1-c1ccoc1C	-0.885%	6.51 µM [falling, single point]	
O=c1c2cc3ccccc3n2cnn1Cc1ccccc1F	-16.5%	23.1 µM [falling, single point]	
CCc1ccc(NC(=O)CSc2nncn2-c2cccnc2)cc1	23.9%	6.51 µM [rising, partial curve, poor fit]	
CCOC(=O)C1Cn2c(nc3c(c2=O)C(C)(C)Cc2ccccc2-3)S1 (configuration not stated)	17.7%	0.731 µM [falling, single point]	
O=C(Nc1ccc2oc(-c3ccccc3F)nc2c1)c1cncc(Br)c1		0.164 µM [rising, full curve, poor fit]	0.731 µM [rising, full curve]
O=C(COC(=O)C1CC1)Nc1ccccc1Sc1ccccc1	14.7%		
Cn1ncc(Br)c1C(=O)Nc1cccc(C(F)(F)F)c1	15.7%	10.3 µM [rising, partial curve]	
Cc1ccc2[nH]c(-c3cccc(F)c3)cc(=O)c2c1		29.1 µM [rising, single point]	
Cc1cccc(N(CC(=O)NCCc2ccccc2)C(=O)CCC(=O)Nc2ccccn2)c1C	16.8%		
Cc1c(Cl)cccc1NC(=O)c1ncn[nH]1	15.9%	0.366 µM [rising, single point]	
CCOc1cc(CNc2ccc(O)cc2)ccc1OCc1ccc(Cl)cc1Cl		1.84 µM [rising, partial curve]	0.731 µM [rising, partial curve]
CCNC(=O)c1c(NC(=O)C2COc3ccccc3O2)sc2c1CCCC2 (configuration not stated)	-44.4%		32.6 µM [falling, single point]
CCNC(=S)N/N=C/c1ccccc1[N+](=O)[O-]			2.31 µM [rising, single point]
Cc1nn(C)c(Cl)c1/C=N/OC(=O)c1ccc(F)cc1	-48.9%	35.5 µM [falling, partial curve, poor fit]	
